At least one peptide structure holds a part that was inferred or is arguable (an end, a ring closure or a residue). Square brackets hold non-standard residues; d marks the D form. Peptide text beside a SMILES is read from it.
Key:
[1] = test system: GRP78/BiP; assay: GRP78/BiP marker blood level by ELISA in treated patients; format: in vivo, human
[2] = test system: NK cells; assay: Staining of patients' biopsies with anti human NK cells antibodies; format: in vivo; conditions: after administration vs before entry to the trial, data not shown
[3] = test system: EMT6 cells; assay: Breast cancer tumors in mice, dTCApFs and anti-PDL1 antibody; format: in vivo, Balb/c mice; conditions: dTCApFs monotherapy, three times per week at 1 mg/kg, FIG. 22
[4] = test system: human TNBC cells (human MDA231); assay: Triple negative breast cancer tumors in mice; format: in vivo, nude mice; conditions: dTCApFs alone, once a week at 15 mg/kg, FIG. 14
Procedure: Therefore, 32 nude mice were inoculated subcutaneously (S.C.) with 9 million human TNBC cells (human MDA231, ATCC) per mouse. Cells were cultured as known in the art, for example, as described above. When the tumors exceeded a volume of 40 mm^3, the mice were randomly divided into five groups, as follows. The “Control” group (n=5) was treated with 5% mannitol; the “dTCApFs” group (n=5) was treated once a week with dTCApFs at 15 mg/kg; the “Dox” group (n=5) was treated once a week with doxorubicin (Sigma Aldrich) at 3 mg/kg; the “dTCApFs+Dox next day” (n=8) group was treated with dTCApFs at 15 mg/kg and 24 hours later also with doxorubicin, at 3 mg/kg; and the “dTCApFs+Dox same day” (n=9) group was treated with dTCApFs at 15 mg/kg and with doxorubicin at 3 mg/kg, on same day.

[5] = test system: PDGF-BB; assay: Serum level of angiogenic factor by ELISA, patients on dTCApFs; format: in vivo, human
[6] = test system: CRT; assay: CRT levels in cells after dTCApFs treatment; design: species or system mice; conditions: data not shown
[7] = test system: GM-CSF; assay: Serum level of cytokine by ELISA, patients on dTCApFs; format: in vivo, human
[8] = test system: Calreticulin (CRT); assay: Calreticulin (CRT) blood level by ELISA in treated patients; format: in vivo, human; conditions: 6-96 mg/m^2, FIG. 11
[9] = test system: VEGF-D; assay: Serum level of angiogenic factor by ELISA, patients on dTCApFs; format: in vivo, human
[10] = test system: OV90 cells; assay: ImmunoCytoChemistry of OV90 cells treated with dTCApFs; format: cell-based, human; conditions: 50 μg/ml dTCApFs
[11] = test system: FGF-2; assay: Serum level of angiogenic factor by ELISA, patients on dTCApFs; format: in vivo, human

## CC(C)C[C@@H](NC(=O)[C@H](NC(=O)[C@@H](CO)NC(=O)[C@H]1CCCN1C(=O)[C@@H](CC(C)C)NC(=O)[C@@H](Cc1ccccc1)NC(=O)[C@@H](Cc1ccccc1)NC(=O)[C@H](NC(=O)[C@@H](Cc1c[nH]c2ccccc12)NC(=O)[C@H](N)Cc1c[nH]c2ccccc12)[C@H](C)O)[C@H](C)O)C(=O)N[C@H](Cc1c[nH]c2ccccc12)C(=O)N[C@H](CCC(=O)O)C(=O)N[C@H](CCCNC(=N)N)C(=O)N[C@H](CCCCN)C(=O)O [dTCApFs, Trp Trp Thr Phe Phe Leu Pro Ser Thr Leu Trp Glu Arg Lys] (H-[dW][dW][dT][dF][dF][dL][dP][dS][dT][dL][dW][dE][dR][dK]-OH; N-terminus and C-terminus assumed)
[1]; Patient 012, Cohort 3, Cycle 1, Day 29
  Serum level of BiP: 21.17 ng/mL
[1]; Patient 013, Cohort 3, Cycle 1, Day 1 (baseline, prior to first administration)
  Serum level of BiP: 48.33 ng/mL
[1]; Patient 013, Cohort 3, Cycle 1, Day 29
  Serum level of BiP: 26.94 ng/mL
[1]; Patient 015, Cohort 3, Cycle 1, Day 1 (baseline, prior to first administration)
  Serum level of BiP: 56.53 ng/mL
[1]; Patient 015, Cohort 3, Cycle 1, Day 29
  Serum level of BiP: 46.62 ng/mL
[1]; Patient 017, Cohort 4, Cycle 1, Day 1 (baseline, prior to first administration)
  Serum level of BiP: 86.18 ng/mL
[1]; Patient 017, Cohort 4, Cycle 1, Day 29
  Serum level of BiP: 27.94 ng/mL
[1]; Patient 022, Cohort 5, Cycle 1, Day 1 (baseline, prior to first administration)
  Serum level of BiP: 22.90 ng/mL
[1]; Patient 022, Cohort 5, Cycle 1, Day 29
  Serum level of BiP: 48.62 ng/mL
[1]; Patient 023, Cohort 5, Cycle 1, Day 1 (baseline, prior to first administration)
  Serum level of BiP: 20.67 ng/mL
[1]; Patient 023, Cohort 5, Cycle 1, Day 29
  Serum level of BiP: 39.86 ng/mL
[1]; Patient 035, Cohort 5, Cycle 1, Day 1 (baseline, prior to first administration)
  Serum level of BiP: 38.44 ng/mL
[1]; Patient 035, Cohort 5, Cycle 1, Day 29
  Serum level of BiP: 169.21 ng/mL
[2]
  NK cells stain in patients' biopsies: strong stain of NK cells
[3]
  tumor size: the increase in tumor size was moderate
[4]
  tumor volume: clear increase in tumor volume
[5]; 6 mg/m^2, n = 3
  PDGF-BB, mean change in serum level from pre- to post- treatment with dTCApFs: +2271%
[5]; 12 mg/m^2, n = 3
  PDGF-BB, mean change in serum level from pre- to post- treatment with dTCApFs: −95%
[5]; 24 mg/m^2, n = 3
  PDGF-BB, mean change in serum level from pre- to post- treatment with dTCApFs: −82%
[5]; 48 mg/m^2, n = 3
  PDGF-BB, mean change in serum level from pre- to post- treatment with dTCApFs: −78%
[5]; 96 mg/m^2, n = 5
  PDGF-BB, mean change in serum level from pre- to post- treatment with dTCApFs: +185%
[6]
  CRT levels in cells: not affected
[7]; 6 mg/m^2, n = 3
  GM-CSF, mean change in serum level from pre- to post- treatment with dTCApFs: +2173%
[7]; 12 mg/m^2, n = 3
  GM-CSF, mean change in serum level from pre- to post- treatment with dTCApFs: −97%
[7]; 24 mg/m^2, n = 3
  GM-CSF, mean change in serum level from pre- to post- treatment with dTCApFs: +11%
[7]; 48 mg/m^2, n = 3
  GM-CSF, mean change in serum level from pre- to post- treatment with dTCApFs: +5613%
[7]; 96 mg/m^2, n = 5
  GM-CSF, mean change in serum level from pre- to post- treatment with dTCApFs: +974%
[8]
  correlation between the dose of dTCApFs and the level of serum CRT: no correlation was observed
[9]; 6 mg/m^2, n = 3
  VEGF-D, mean change in serum level from pre- to post- treatment with dTCApFs: +117%
[9]; 12 mg/m^2, n = 3
  VEGF-D, mean change in serum level from pre- to post- treatment with dTCApFs: −40%
[9]; 24 mg/m^2, n = 3
  VEGF-D, mean change in serum level from pre- to post- treatment with dTCApFs: −54%
[9]; 48 mg/m^2, n = 3
  VEGF-D, mean change in serum level from pre- to post- treatment with dTCApFs: −63%
[9]; 96 mg/m^2, n = 5
  VEGF-D, mean change in serum level from pre- to post- treatment with dTCApFs: +3%
[10]; 48 hrs + additional dose 24 hrs, FIG. 9A/9B
  effect on the Golgi apparatus (β-cop staining): complete destruction of the Golgi apparatus
[10]; FIG. 10A/10B
  BiP expression (staining): clear strengthening of the BiP stain
[11]; 6 mg/m^2, n = 3
  FGF-2, mean change in serum level from pre- to post- treatment with dTCApFs: +199%
[11]; 12 mg/m^2, n = 3
  FGF-2, mean change in serum level from pre- to post- treatment with dTCApFs: −74%
[11]; 24 mg/m^2, n = 3
  FGF-2, mean change in serum level from pre- to post- treatment with dTCApFs: −34%
[11]; 48 mg/m^2, n = 3
  FGF-2, mean change in serum level from pre- to post- treatment with dTCApFs: −13%
[11]; 96 mg/m^2, n = 5
  FGF-2, mean change in serum level from pre- to post- treatment with dTCApFs: +44%

— US11813305B2, “Endoplasmic reticulum stress as a predictive tool in cancer therapy and a combination therapy for the treatment of cancer” (IMMUNE SYSTEM KEY LTD., priority 2016, dated 2023)
